Data taken from the supplement of paper PMC8728848.
This is one part of the list.

Legend:
Assay in all cases: glycan array binding signal (z-score within array); higher = stronger binding
Conditions in all cases: glycan notation: IUPAC condensed, linker removed
[1] = biological target: Neu5Ac(a2-3)Gal(b1-3)GlcNAc(b1-6)GalNAc
Method in brief: (§1)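 The binding signal is a Z-score computed within each array. Data were drawn from 3228 arrays in the Consortium for Functional Glycomics database, restricted to those with a known protein sequence. Scores were averaged over arrays of the same protein sequence at different concentrations or buffers, and over linkers, and negative values can be taken as non-binding.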

[2] = biological target: Neu5Ac(a2-3)Gal(b1-3)GlcNAc6S
Method in brief: as §1

[3] = biological target: Neu5Ac(a2-3)Gal(b1-3)[Fuc(a1-4)]GlcNAc
Method in brief: as §1

[4] = biological target: Neu5Ac(a2-3)Gal(b1-3)[Fuc(a1-4)]GlcNAc(b1-3)Gal(b1-3)[Fuc(a1-4)]GlcNAc
Method in brief: as §1

[5] = biological target: Neu5Ac(a2-3)Gal(b1-3)[Fuc(a1-4)]GlcNAc(b1-3)Gal(b1-4)[Fuc(a1-3)]GlcNAc
Method in brief: as §1

[6] = biological target: Neu5Ac(a2-3)Gal(b1-3)[GlcNAc(b1-6)]GalNAc
Method in brief: as §1

[7] = biological target: Neu5Ac(a2-3)Gal(b1-3)[Neu5Ac(a2-6)]GalNAc
Method in brief: as §1

[8] = biological target: Neu5Ac(a2-3)Gal(b1-3)[Neu5Ac(a2-6)]GlcNAc(b1-3)[Fuc(a1-3)[Gal(b1-4)]GlcNAc(b1-6)]Gal(b1-4)Glc
Method in brief: as §1

[9] = biological target: Neu5Ac(a2-3)Gal(b1-3)]Neu5Ac(a2-3)Gal(b1-4)]GlcNAc
Method in brief: as §1

[10] = biological target: Neu5Ac(a2-3)Gal(b1-4)Glc
Method in brief: as §1

[11] = biological target: Neu5Ac(a2-3)Gal(b1-4)GlcNAc
Method in brief: as §1

[12] = biological target: Neu5Ac(a2-3)Gal(b1-4)GlcNAc(b1-2)Man
Method in brief: as §1

[13] = biological target: Neu5Ac(a2-3)Gal(b1-4)GlcNAc(b1-2)Man(a1-3)[GlcNAc(b1-4)][Neu5Ac(a2-3)Gal(b1-4)GlcNAc(b1-2)Man(a1-6)]Man(b1-4)GlcNAc(b1-4)GlcNAc
Method in brief: as §1

[14] = biological target: Neu5Ac(a2-3)Gal(b1-4)GlcNAc(b1-2)Man(a1-3)[Neu5Ac(a2-3)Gal(b1-4)GlcNAc(b1-2)Man(a1-6)]Man(b1-4)GlcNAc(b1-4)GlcNAc
Method in brief: as §1

[15] = biological target: Neu5Ac(a2-3)Gal(b1-4)GlcNAc(b1-2)Man(a1-3)[Neu5Ac(a2-3)Gal(b1-4)GlcNAc(b1-2)Man(a1-6)]Man(b1-4)GlcNAc(b1-4)[Fuc(a1-6)]GlcNAc
Method in brief: as §1

[16] = biological target: Neu5Ac(a2-3)Gal(b1-4)GlcNAc(b1-2)Man(a1-3)[Neu5Ac(a2-6)Gal(b1-4)GlcNAc(b1-2)Man(a1-6)]Man(b1-4)GlcNAc(b1-4)GlcNAc
Method in brief: as §1

[17] = biological target: Neu5Ac(a2-3)Gal(b1-4)GlcNAc(b1-2)[Neu5Ac(a2-3)Gal(b1-4)GlcNAc(b1-4)]Man(a1-3)[GlcNAc(b1-4)][Neu5Ac(a2-3)Gal(b1-4)GlcNAc(b1-2)[Neu5Ac(a2-3)Gal(b1-4)GlcNAc(b1-6)]Man(a1-6)]Man(b1-4)GlcNAc(b1-4)GlcNAc
Method in brief: as §1

[18] = biological target: Neu5Ac(a2-3)Gal(b1-4)GlcNAc(b1-2)[Neu5Ac(a2-3)Gal(b1-4)GlcNAc(b1-4)]Man(a1-3)[GlcNAc(b1-4)][Neu5Ac(a2-3)Gal(b1-4)GlcNAc(b1-4)Man(a1-6)]Man(b1-4)GlcNAc(b1-4)GlcNAc
Method in brief: as §1

[19] = biological target: Neu5Ac(a2-3)Gal(b1-4)GlcNAc(b1-2)[Neu5Ac(a2-3)Gal(b1-4)GlcNAc(b1-6)]Man(a1-6)[Neu5Ac(a2-3)Gal(b1-4)GlcNAc(b1-2)Man(a1-3)][GlcNAc(b1-4)]Man(b1-4)GlcNAc(b1-4)GlcNAc
Method in brief: as §1

[20] = biological target: Neu5Ac(a2-3)Gal(b1-4)GlcNAc(b1-3)Gal
Method in brief: as §1

[21] = biological target: Neu5Ac(a2-3)Gal(b1-4)GlcNAc(b1-3)Gal(b1-3)GlcNAc
Method in brief: as §1

[22] = biological target: Neu5Ac(a2-3)Gal(b1-4)GlcNAc(b1-3)Gal(b1-4)GlcNAc
Method in brief: as §1

[23] = biological target: Neu5Ac(a2-3)Gal(b1-4)GlcNAc(b1-3)Gal(b1-4)GlcNAc(b1-2)Man(a1-3)[Neu5Ac(a2-3)Gal(b1-4)GlcNAc(b1-3)Gal(b1-4)GlcNAc(b1-2)Man(a1-6)]Man(b1-4)GlcNAc(b1-4)GlcNAc
Method in brief: as §1

[24] = biological target: Neu5Ac(a2-3)Gal(b1-4)GlcNAc(b1-3)Gal(b1-4)GlcNAc(b1-3)Gal(b1-4)GlcNAc
Method in brief: as §1

[25] = biological target: Neu5Ac(a2-3)Gal(b1-4)GlcNAc(b1-3)Gal(b1-4)GlcNAc(b1-3)Gal(b1-4)GlcNAc(b1-2)Man(a1-3)[Neu5Ac(a2-3)Gal(b1-4)GlcNAc(b1-3)Gal(b1-4)GlcNAc(b1-3)Gal(b1-4)GlcNAc(b1-2)Man(a1-6)]GalNAc
Method in brief: as §1

[26] = biological target: Neu5Ac(a2-3)Gal(b1-4)GlcNAc(b1-3)Gal(b1-4)GlcNAc(b1-3)GalNAc
Method in brief: as §1

[27] = biological target: Neu5Ac(a2-3)Gal(b1-4)GlcNAc(b1-3)Gal(b1-4)GlcNAc(b1-3)[Neu5Ac(a2-3)Gal(b1-4)GlcNAc(b1-3)Gal(b1-4)GlcNAc(b1-6)]GalNAc
Method in brief: as §1

[28] = biological target: Neu5Ac(a2-3)Gal(b1-4)GlcNAc(b1-3)Gal(b1-4)GlcNAc(b1-6)[Gal(b1-3)]GalNAc
Method in brief: as §1

[29] = biological target: Neu5Ac(a2-3)Gal(b1-4)GlcNAc(b1-3)Gal(b1-4)[Fuc(a1-3)]GlcNAc
Method in brief: as §1

[30] = biological target: Neu5Ac(a2-3)Gal(b1-4)GlcNAc(b1-3)GalNAc
Method in brief: as §1

[31] = biological target: Neu5Ac(a2-3)Gal(b1-4)GlcNAc(b1-3)[Neu5Ac(a2-3)Gal(b1-4)GlcNAc(b1-6)]GalNAc
Method in brief: as §1

[32] = biological target: Neu5Ac(a2-3)Gal(b1-4)GlcNAc(b1-6)GalNAc
Method in brief: as §1

[33] = biological target: Neu5Ac(a2-3)Gal(b1-4)GlcNAc(b1-6)[Gal(b1-3)]GalNAc
Method in brief: as §1

[34] = biological target: Neu5Ac(a2-3)Gal(b1-4)GlcNAc(b1-6)[Neu5Ac(a2-3)Gal(b1-3)]GalNAc
Method in brief: as §1

[35] = biological target: Neu5Ac(a2-3)Gal(b1-4)GlcNAc6S
Method in brief: as §1

[36] = biological target: Neu5Ac(a2-3)Gal(b1-4)[Fuc(a1-3)]GlcNAc
Method in brief: as §1

[37] = biological target: Neu5Ac(a2-3)Gal(b1-4)[Fuc(a1-3)]GlcNAc(b1-2)Man
Method in brief: as §1

[38] = biological target: Neu5Ac(a2-3)Gal(b1-4)[Fuc(a1-3)]GlcNAc(b1-3)Gal
Method in brief: as §1

[39] = biological target: Neu5Ac(a2-3)Gal(b1-4)[Fuc(a1-3)]GlcNAc(b1-3)Gal(b1-4)GlcNAc
Method in brief: as §1

[40] = biological target: Neu5Ac(a2-3)Gal(b1-4)[Fuc(a1-3)]GlcNAc(b1-3)Gal(b1-4)[Fuc(a1-3)]GlcNAc(b1-3)Gal(b1-4)[Fuc(a1-3)]GlcNAc
Method in brief: as §1

[41] = biological target: Neu5Ac(a2-3)Gal(b1-4)[Fuc(a1-3)]GlcNAc(b1-3)GalNAc
Method in brief: as §1

[42] = biological target: Neu5Ac(a2-3)Gal(b1-4)[Fuc(a1-3)]GlcNAc(b1-6)[Gal(b1-3)]GalNAc
Method in brief: as §1

[43] = biological target: Neu5Ac(a2-3)Gal(b1-4)[Fuc(a1-3)]GlcNAc(b1-6)[Neu5Ac(a2-3)Gal(b1-3)]GalNAc
Method in brief: as §1

[44] = biological target: Neu5Ac(a2-3)Gal(b1-4)[Fuc(a1-3)]GlcNAc6S
Method in brief: as §1

[45] = biological target: Neu5Ac(a2-3)Gal6S(b1-4)GlcNAc
Method in brief: as §1

B1: LysMD3 (Homo sapiens), Q7Z3D4 (protein)
chain: MAGRHQNRSFPLPGVQSSGQVHAFGNCSDSDILEEDAEVYELRSRGKEKVRRSTSRDRLDDIIVLTKDIQEGDTLNAIALQYCCTVADIKRVNNLISDQDFFALRSIKIPVKKFSSLTETLCPPKGRQTSRHSSVQYSSEQQEILPANDSLAYSDSAGSFLKEVDRDIEQIVKCTDNKRENLNEVVSALTAQQMRFEPDNKNTQRKDPYYGADWGIG
glycan array binding signal (z-score) [1]: -0.701
glycan array binding signal (z-score) [2]: -0.562
glycan array binding signal (z-score) [3]: -0.689
glycan array binding signal (z-score) [4]: -0.51
glycan array binding signal (z-score) [5]: 0.346
glycan array binding signal (z-score) [6]: -0.933
glycan array binding signal (z-score) [7]: 0.106
glycan array binding signal (z-score) [8]: -0.473
glycan array binding signal (z-score) [9]: 0.837
glycan array binding signal (z-score) [10]: -0.644
glycan array binding signal (z-score) [11]: -0.259
glycan array binding signal (z-score) [12]: -0.604
glycan array binding signal (z-score) [13]: -0.07
glycan array binding signal (z-score) [14]: 0.459
glycan array binding signal (z-score) [15]: -0.475
glycan array binding signal (z-score) [16]: 0.582
glycan array binding signal (z-score) [17]: -0.117
glycan array binding signal (z-score) [18]: -1.33
glycan array binding signal (z-score) [19]: 0.359
glycan array binding signal (z-score) [20]: -0.198
glycan array binding signal (z-score) [21]: -0.589
glycan array binding signal (z-score) [22]: 0.515
glycan array binding signal (z-score) [23]: -0.994
glycan array binding signal (z-score) [24]: 0.245
glycan array binding signal (z-score) [25]: -0.65
glycan array binding signal (z-score) [26]: -0.97
glycan array binding signal (z-score) [27]: -0.222
glycan array binding signal (z-score) [28]: -0.924
glycan array binding signal (z-score) [29]: -0.062
glycan array binding signal (z-score) [30]: -1.16
glycan array binding signal (z-score) [31]: -0.148
glycan array binding signal (z-score) [32]: -0.53
glycan array binding signal (z-score) [33]: -0.655
glycan array binding signal (z-score) [34]: -0.226
glycan array binding signal (z-score) [35]: 0.421
glycan array binding signal (z-score) [36]: -0.005
glycan array binding signal (z-score) [37]: 0.036
glycan array binding signal (z-score) [38]: -0.019
glycan array binding signal (z-score) [39]: 0.356
glycan array binding signal (z-score) [40]: -0.593
glycan array binding signal (z-score) [41]: -0.384
glycan array binding signal (z-score) [42]: 0.167
glycan array binding signal (z-score) [43]: 0.109
glycan array binding signal (z-score) [44]: -0.122
glycan array binding signal (z-score) [45]: -0.773
